Among all 31,000 sequences or so, about 1,400 (4.5%) were called active.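 The calls were made as follows: active = median seed-adjusted z-score above 1 or below -1; inactive = the rest.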 The list shows a part of the results.

The nature of this assay: Novel Modifiers of Survival Motor Neuron (SMN) Protein: Gene Identification via Genome-wide siRNA Screen.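 Also: luminescence tracks full-length SMN protein made from the SMN2 reporter.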 As to conditions: HEK293T SMN2-luciferase reporter, siRNA knockdown, 72 h; actives lie on both sides. A digest of the protocol: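 HEK293T cells stably expressing an SMN2 splicing/cDNA-luciferase reporter were reverse-transfected with a druggable-genome siRNA library and read by luminescence at 72 hours; hits defined by MAD score above 1.0 or below -1.0.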
Regarding CAAUAACAAUUUCGGACAATT against TMPRSS11A, the median seed-adjusted z-score is inactive: 0.

Turning to GGCUGUACGUGAAUAGUGUTT against TIAM1, the median seed-adjusted z-score is inactive: 0.13.

In the case of GGCUGUUUCGGGACAAGUATT against SRPR, the median seed-adjusted z-score was inactive: 0.242.

In the case of GGAUACAGAGACCAAUUUATT against DONSON, the median seed-adjusted z-score was inactive: -0.882.

Take GCAUAACAAAUACCUUAGATT against ERCC5: the median seed-adjusted z-score was inactive: -0.0811.

On to GAGCCUUUCGGAGCAGUUATT against ZNF740, for which the median seed-adjusted z-score was inactive: -0.914.

In the case of CGAACGACAGUUCCACAAATT against PDE6A, the median seed-adjusted z-score is active: 1.25.

In the case of GGCUCGUGGGAUGAACAAATT against OSBP2, the median seed-adjusted z-score was inactive: -0.568.

As for GGCACUUAUGUAUAAACCATT against ZNF793, the median seed-adjusted z-score is inactive: 0.448.

As to GCAUCGAUUUUCACUAUUUTT against PTPRM, the median seed-adjusted z-score was inactive: 0.

As to AAUUGAAGAUGGAAGUUGATT against GNGT1, the median seed-adjusted z-score is inactive: -0.0382.

As for CAAUCACCGCUGUGGUAAATT against UCP1, the median seed-adjusted z-score was inactive: -0.0744.

Consider GCAGGAGUUUGAUAAGCUUTT against TRIM35, for which the median seed-adjusted z-score was inactive: -0.0463.

For the sequence CCGUAGGAUUUACAGAAUATT against MOBKL3, the median seed-adjusted z-score is inactive: 0.575.

With GCCUGUUCCAAACCCAUUATT against FHL5, the median seed-adjusted z-score was inactive: 0.0859.

As for GCAUUGCUAUGGAGAUAGATT against SIN3A, the median seed-adjusted z-score is inactive: -0.384.

Consider CAUUAGCAAUUUCAGCAAATT against UEVLD, for which the median seed-adjusted z-score was inactive: -0.0682.

In the case of CGUGAUCCUUUACACGUGATT against RTN4IP1, the median seed-adjusted z-score is inactive: -0.00582.

With GGAUAGCUGGUAUUCGAAATT against KLHL7, the median seed-adjusted z-score is inactive: -0.567.

As to CUGUAAAAGUGGGAAUGAATT against PEPD, the median seed-adjusted z-score was inactive: -0.00401.

With CACGGCAAGUGGAAAGAUATT against SERPINA2, the median seed-adjusted z-score was inactive: 0.285.

In the case of GGAACAAGGUCUAAUUUGUTT against CAV3, the median seed-adjusted z-score was inactive: 0.

Consider GAUCAUUGCUGGGAAUCUATT against GPR52, for which the median seed-adjusted z-score was active: -1.17.

Take UGCGAUUACUGAUCCGCAATT against SAG: the median seed-adjusted z-score was inactive: 0.

Consider CUGCAUUUGUGGUAGCUGUTT against NDUFB3, for which the median seed-adjusted z-score is inactive: -0.00982.

Consider GGCUGACCUCAUCUGCUUUTT against VKORC1, for which the median seed-adjusted z-score was inactive: -0.754.

Take UGCUGCAUGUUCUUUGUUUTT against CCL24: the median seed-adjusted z-score was inactive: 0.

On to CAAUUUUGCAGGCAACUUUTT against SCYE1, for which the median seed-adjusted z-score was inactive: 0.437.

Turning to GCAUCCAUCAUUCGACUUATT against NPAS3, the median seed-adjusted z-score is inactive: -0.0316.

With CGGAAUUUGUUGCUCCAGATT against DAPK2, the median seed-adjusted z-score was inactive: 0.268.

Consider GCAGGCUACCGGAAAUCUATT against EHD4, for which the median seed-adjusted z-score was inactive: 0.333.

UGAUUUCGGUGCUCAAGUATT against SLC26A9: the median seed-adjusted z-score was inactive: 0.223.

On to CAGACAAGGAGGAAUUUAATT against ZSCAN10, for which the median seed-adjusted z-score was inactive: 0.

As for AGAAGAAGCUUGGAUGACATT against ZNF22, the median seed-adjusted z-score was inactive: 0.47.

Turning to GAAUCAACAAGAUUGGGAATT against CBS, the median seed-adjusted z-score is inactive: -0.0696.

For AGAGCGUGCGUCCACAAAATT against MATN4, the median seed-adjusted z-score was inactive: -0.262.

Consider CAGGGAGCCUUAAACUUAUTT against CDC25C, for which the median seed-adjusted z-score is inactive: 0.256.

As to CAGUCUGCCUUGGAUCAAATT against CPA3, the median seed-adjusted z-score was inactive: 0.192.

As for ACCCUUUCGUGGAACAAGATT against NTNG2, the median seed-adjusted z-score is inactive: 0.403.

For CCUCAGAGCUUGGUCGGAATT against TCOF1, the median seed-adjusted z-score is inactive: 0.819.

For the sequence UACUCCACCUUGAAAGAUATT against TBC1D13, the median seed-adjusted z-score was inactive: 0.33.

As for CCAUCGCUUUCAGCAGACATT against DLX6, the median seed-adjusted z-score was inactive: 0.0275.

In the case of CCAACAAGCAGAAUCAGAATT against MPRIP, the median seed-adjusted z-score was inactive: 0.238.

For GCCUUUCAGCAUGCGGUUATT against GDPD1, the median seed-adjusted z-score is inactive: 0.527.

For the sequence GAAGUUCACUUUAGAUAUUTT against SPINT4, the median seed-adjusted z-score is inactive: 0.354.

Take AAUUCUACGAGUCCAAGUATT against GPS1: the median seed-adjusted z-score was inactive: 0.205.

Consider CAAUGCUUUCGGCUCCAAATT against TBX4, for which the median seed-adjusted z-score was inactive: 0.968.

For GGGACGAGAUCAACGAGAATT against KIF5A, the median seed-adjusted z-score was inactive: -0.348.

As to AGAGUGUCCAGAUUGAGAATT against SLC5A10, the median seed-adjusted z-score is inactive: 0.669.

As for ACACCUGCCUGGUAGAGAATT against FGFR4, the median seed-adjusted z-score was inactive: 0.0825.

With GUAAAGCGUGGAAUCGUUATT against ANPEP, the median seed-adjusted z-score is inactive: 0.252.

For GGACGAACCUUGACAGGAUTT against GATM, the median seed-adjusted z-score is inactive: 0.182.

For the sequence GCCUAGGUGCCGAAUGGAATT against SOX14, the median seed-adjusted z-score is inactive: -0.296.

Take CCACCAACGAAUACGUCUATT against PRKCSH: the median seed-adjusted z-score was inactive: -0.0512.

Regarding GGUGCCUUCUUAUGACCUUTT against STAT6, the median seed-adjusted z-score is inactive: 0.28.

GCAAAGAUAGCGAGAAAUATT against TBX1: the median seed-adjusted z-score was inactive: -0.744.

Take CGAUGUUGUGAUAAGGUUATT against ST3GAL5: the median seed-adjusted z-score was inactive: 0.11.

Take CAGUGAAUUUGGUAAGGUUTT against SLC9A11: the median seed-adjusted z-score is inactive: -0.12.

With GGAUGUAAAUUUCGAGUUUTT against PMS2, the median seed-adjusted z-score is inactive: -0.162.

Turning to GGUAGUCAAUCAGUACCAATT against FAM48A, the median seed-adjusted z-score was inactive: -0.506.

For CCAUGGAUGAGACUCCGUATT against PPP1R10, the median seed-adjusted z-score is active: 1.41.

For GGAUAACACUAAGUUUAGATT against SFRS1, the median seed-adjusted z-score was active: -1.66.

As to GAAACACUCGUUAUCGAAATT against ATP13A2, the median seed-adjusted z-score is inactive: 0.461.

GACCAUCUCUCAGAAGUUUTT against ODF1: the median seed-adjusted z-score was inactive: 0.912.

Regarding CCCAUACACUGGUCAGACATT against ILDR1, the median seed-adjusted z-score is inactive: -0.318.

As for CUGUUUGGGUUGAUCAACATT against PEX1, the median seed-adjusted z-score was inactive: 0.227.

With CACCCUUUCUAAACAUGAUTT against ZNF33B, the median seed-adjusted z-score was inactive: -0.279.

Turning to GCAAGAUUCCAUUCACGUUTT against ORC2L, the median seed-adjusted z-score is inactive: -0.101.

With GAUCGUUGAUGAGAAAGUUTT against LARP1, the median seed-adjusted z-score is inactive: 0.251.

Turning to CAUUCAGCCUUGAUAUUGATT against GPR107, the median seed-adjusted z-score is inactive: 0.

GGCUGUUGGUAUGAUCCUATT against SLC15A2: the median seed-adjusted z-score was inactive: 0.322.

ACAGCUCACUGAACCCUGUTT against ADRA2B: the median seed-adjusted z-score was inactive: 0.00853.

Consider GGAAGAACAGGUUCCGGAATT against ABCC12, for which the median seed-adjusted z-score is inactive: 0.204.

GAAUUUGCCUGUCUAAAAUTT against NR2E1: the median seed-adjusted z-score was inactive: 0.559.

Turning to GAGUAAACCUCGAAACCGATT against MAP3K13, the median seed-adjusted z-score was inactive: -0.121.

On to GCUGGAAUUUGUUACGCAATT against MTAP, for which the median seed-adjusted z-score is inactive: -0.0621.

For the sequence GGAUCCUAAUUGUCAUCAUTT against B3GAT2, the median seed-adjusted z-score was inactive: 0.33.

Turning to CAGCCUCACCAAGCACAAATT against ZNF358, the median seed-adjusted z-score is inactive: 0.359.

For AUCGACUUCUGGAACAUAATT against KCNC2, the median seed-adjusted z-score was inactive: 0.3.

With GGCAAACGAGUGUGCUUCATT against FAM47B, the median seed-adjusted z-score was inactive: -0.0631.

Take GGAUAUUCUUCUCCGCUUATT against ACSL4: the median seed-adjusted z-score was inactive: -0.0582.

CGGAGACCACGUUUCAAAATT against TERT: the median seed-adjusted z-score was inactive: -0.698.

Turning to GUAUGGUGAUGACCUAGAATT against SNW1, the median seed-adjusted z-score was inactive: 0.148.

On to CAGCUGCAAUUCUAGCUAATT against RETSAT, for which the median seed-adjusted z-score is active: -1.7.

As to CGCAGACCAACAAGACUUCTT against DTX2, the median seed-adjusted z-score is inactive: 0.0597.

With CCAGCAAAGUUUGACCAAATT against ZBTB20, the median seed-adjusted z-score was inactive: -0.521.

On to CACUAAUGCUUAUCAAUAATT against POLD4, for which the median seed-adjusted z-score was inactive: 0.225.

For the sequence CGAUAACUGUAAUCCUGUUTT against ZDHHC7, the median seed-adjusted z-score is inactive: 0.0962.

As to GUUACUUUGUGACAAAUGATT against HS3ST4, the median seed-adjusted z-score was inactive: 0.284.

As for GGGCGAUCUUGACAGGAAATT against PPARG, the median seed-adjusted z-score was inactive: -0.0309.

As for GGAACAUACUGGACCUGGUTT against PKD2L1, the median seed-adjusted z-score was inactive: 0.445.

As to GGAUCCAUCUGGUUACAAUTT against LIG1, the median seed-adjusted z-score was inactive: 0.722.

Consider GGAGUUAAGAAUAUUAUGATT against VAMP8, for which the median seed-adjusted z-score was inactive: -0.184.

Turning to GCCUUAUGAUGGAAGAGAUTT against EYA2, the median seed-adjusted z-score was inactive: 0.111.

Consider CUGUCAAUGUUAUUACUCUTT against TSG101, for which the median seed-adjusted z-score was active: 1.48.

Turning to GCUGCAUUCGCGAUUCUAUTT against CIB2, the median seed-adjusted z-score was inactive: 0.569.

For the sequence UGUAUACAGUAACAACAUUTT against FAM12A, the median seed-adjusted z-score was inactive: 0.08.

As for GCACCUUCCUGCUAAGAUUTT against STAT3, the median seed-adjusted z-score is inactive: 0.

Regarding GCACUAAGGUGAAGAGUAATT against MTMR7, the median seed-adjusted z-score was inactive: -0.207.

For CGGAAGAGUUUUUCGACUATT against BTRC, the median seed-adjusted z-score is inactive: -0.0819.

Consider GCACAAGACAUACGAUUUUTT against CHST10, for which the median seed-adjusted z-score is inactive: 0.115.

As to CUCUCGAUCUGCUCACUGATT against CCRN4L, the median seed-adjusted z-score was inactive: -0.572.

For the sequence CAACAUCUCAGAUGCUUUUTT against ASNA1, the median seed-adjusted z-score was inactive: 0.357.

On to CCUGGAGACCGGUAUCUUUTT against LRIT1, for which the median seed-adjusted z-score was inactive: -0.611.

Take GAGAACACCUCAUCCCAUATT against CCIN: the median seed-adjusted z-score was inactive: 0.0472.

Consider CACUGUCAAUGGAUGAGCATT against RBMS2, for which the median seed-adjusted z-score was inactive: -0.918.

With GGUCCUAACAAAAUCUUGATT against CD96, the median seed-adjusted z-score is inactive: 0.461.

Consider GUUUGAUGCUAAAAAGUUUTT against EEF1G, for which the median seed-adjusted z-score was inactive: -0.206.

The values are drawn from PubChem BioAssay AID1347426 (Functional Genomics Laboratory (NCATS/FGL), 2020).
